Reference: PubChem BioAssay AID2685 (National Center for Advancing Translational Sciences (NCATS), 2010)
The other results are listed elsewhere or left out. These are further read-outs of the screen, such as a control signal, another cell line or another target. No call is given for them. The list favours compounds with an active or inconclusive main result. Potencies come from curve fits of mixed quality, noted in brackets.

Assay: qHTS Assay for Lipid Storage Modulators in Drosophila S3 Cells;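 for cell number change: cells counted by Cell Tracker Red CMTPX staining in the red channel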
Details: BODIPY lipid droplet fluorescence, 18-24 h; for cell number change: measured here: cell count max response, cells fed with added oleic acid
Summary of the method: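 Drosophila S3 cells loaded with oleic acid (400 uM, as added) and compounds at several concentrations; lipid droplets imaged by 488-nm laser-scanning cytometry, 500–530 nm intensity and object ratio to cell channel. Percent activity normalized to 20 uM Triacsin C.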

[1] = measured here: lipid fluorescence (Fed channel) AC50, cells fed with added oleic acid
[2] = measured here: cell number channel AC50, cells fed with added oleic acid

Row | Structure (SMILES) | cell number change [%] | AC50 [1] | AC50 [2]
1 | COc1cccc2c1CCc1c-2nc2ccccc2c1C(=O)O | -10.8 | 29.1 µM [falling, single point] | –
2 | Cc1cc(C)n(-c2ccc(C(=O)OCC(=O)c3ccc(Br)s3)cc2)n1 | -12.7 | – | –
3 | CCOC(=O)Cn1cnc2c(nnn2-c2ccc(F)cc2)c1=O | -13.3 | 0.651 µM [falling, single point] | –
4 | CC(C)(C)c1ccc(C(=O)Nc2cccc(C(=O)N3CCOCC3)c2)cc1 | -49 | 29.1 µM [falling, single point] | 29.1 µM [falling, single point]
5 | Cc1c(NS(=O)(=O)c2ccccc2F)c(=O)n(-c2ccccc2)n1C | 25.7 | 9.2 µM [rising, partial curve] | –
6 | Cc1ccc(C2(C)NC(=O)N(Cc3c(C)noc3C)C2=O)cc1 (stereo not given) | 8.05 | 29.1 µM [rising, single point] | –
7 | CC(C)N1C[C@@]23C=C[C@@H](O2)C(C(=O)OCc2ccccc2)[C@H]3C1=O (stereo not given in full) | -11.1 | 0.651 µM [falling, full curve, poor fit] | –
8 | Cc1ccc(N2CC(C(=O)N3CCC(C(=O)Nc4nnc(C(C)(C)C)s4)CC3)CC2=O)cc1 (stereo not given) | 12 | – | –
9 | Cc1cc(C)n2nc(SCc3ncc(-c4ccccc4)o3)nc2n1 | 41.3 | 0.58 µM [rising, single point] | 7.31 µM [rising, partial curve]
10 | CCc1ccc(NC(=O)c2onc(C)c2Cl)cc1 | -26.7 | 29.1 µM [falling, single point] | –
11 | CC(C)[C@H](NC(=O)c1c(F)cccc1F)C(=O)OCC(=O)NC(=O)NC1CCCC1 | -33.7 | 6.51 µM [falling, single point] | –
12 | CC(C)(C)c1ccc(OC(=O)c2ccc3nsnc3c2)cc1 | – | 6.51 µM [rising, single point] | –
13 | COc1ccc(C(=O)CSc2nc(C)cc(C)n2)cc1C | -16.4 | – | –
14 | CCCCCC(=O)Nc1nnn(CCC)n1 | -3.07 | 0.651 µM [falling, single point] | –
15 | COc1ccc(C(=O)n2cnnc2N)cc1 | -5.23 | 3.26 µM [falling, partial curve, poor fit] | –
16 | COc1ccccc1C(=O)NCCC(=O)Nc1ncccc1O | -5.63 | 23.1 µM [falling, partial curve, poor fit] | –
17 | Cc1csc(Nc2nc(N)c(C(=O)Nc3ccccc3)o2)n1 | -60.9 | 13 µM [falling, partial curve] | 16.4 µM [falling, partial curve]
18 | COc1cccc(N2CCN(C(=S)Nc3cc(C)cc(C)c3)CC2)c1 | -22.6 | 0.651 µM [falling, full curve, poor fit] | –
19 | CCCN1CCC(NCc2cn(C)nc2-c2ccc(Oc3ccccc3)cc2)CC1 | 5.03 | 6.51 µM [falling, single point] | –
20 | COc1cc(OC)cc(C(=O)N2CCN(C3CCN(Cc4ccccc4)CC3)CC2)c1 | -0.87 | 2.06 µM [falling, partial curve] | 0.651 µM [falling, full curve, poor fit]
21 | COC(=O)[C@H](CCSC)NC(=O)N1CCC(C)CC1 | -10.2 | 1.84 µM [falling, full curve] | –

Row | Structure (SMILES) | cell number change [%] | AC50 [1] | AC50 [2]
22 | O=[N+]([O-])c1ccc(OCC(O)CN(CCO)CCO)cc1 (stereo not given) | -16.9 | – | 2.59 µM [rising, partial curve, poor fit]
23 | COc1ccc(S(=O)(=O)N2CCC(C(=O)Nc3ccc(S(=O)(=O)N4CCCC4)cc3)CC2)cc1OC | 33.3 | 14.6 µM [rising, partial curve, poor fit] | 11.6 µM [rising, partial curve, poor fit]
24 | Nc1cccc(-c2cn3cccnc3n2)c1 | 2.76 | – | 0.116 µM [falling, full curve, poor fit]
25 | Cn1c(SCC(=O)Nc2ccccc2F)nc2c(c1=O)SCC2 | -42.5 | 11.6 µM [falling, partial curve, poor fit] | 16.4 µM [falling, partial curve, poor fit]
26 | COC(=O)Cn1c(=NC(=O)c2ccc(S(=O)(=O)N3CCc4ccccc4C3)cc2)sc2cc(OC)ccc21 | 29.3 | – | –
27 | O=C(NNC(=S)Nc1ccccc1)c1cccc(S(=O)(=O)N2CCOCC2)c1 | -15 | – | –
28 | Cc1ccc(S(=O)(=O)NC(=O)Nc2ccc(C)cn2)cc1 | 13.3 | 0.326 µM [falling, full curve, poor fit] | –
29 | O=C(Nc1cc(C(F)(F)F)ccc1N1CCOCC1)C1CC1 | -3.37 | 4.11 µM [rising, single point] | –
30 | CCCCOC(=O)Cn1cnc2ccc(Br)cc2c1=O | -21.3 | 0.00517 µM [falling, full curve, poor fit] | –
31 | CC(C)(C)c1ccc(OCc2nc(-c3ccccn3)no2)c(Br)c1 | -45.6 | 29.1 µM [falling, single point] | 29.1 µM [falling, single point]
32 | CN(C(=O)CSc1nc2cc([N+](=O)[O-])ccc2n1-c1ccc(F)cc1)C1CCS(=O)(=O)C1 (stereo not given) | 14.9 | 23.1 µM [rising, partial curve, poor fit] | –
33 | CC1CCCCC1NS(=O)(=O)c1ccc(S(=O)(=O)N2CCCC2)cc1 (stereo not given) | 8.66 | 5.17 µM [rising, single point] | –
34 | COC(=O)c1ccc(Cn2cnc3c(sc4nc(N5CCOCC5)c5c(c43)CCCC5)c2=O)o1 | – | 1.03 µM [rising, full curve] | 0.58 µM [rising, single point]
35 | CCc1c(C(=O)NNC(=S)NCc2ccccc2)csc1C | 16.4 | 2.59 µM [rising, partial curve] | –
36 | CN1CCN(c2nc3c(c(=O)[nH]c(=O)n3C)n2Cc2ccccc2F)CC1 | -1.1 | 0.00461 µM [rising, full curve, poor fit] | –
37 | CCOC(=O)C1=NOC(Cn2cc(C#N)c(=O)n(C)c2=O)C1 (stereo not given) | 8.87 | – | –
38 | N#CCCN(C(=O)COC(=O)Cc1c[nH]c2ccccc12)c1ccccc1 | – | 10.3 µM [rising, partial curve] | –
39 | CCN1C(=O)/C(=C\N(C)C)S/C1=N\S(=O)(=O)c1ccccc1 | 10.8 | 0.00517 µM [falling, full curve, poor fit] | –
40 | CN(CC1CCCO1)S(=O)(=O)c1ccc(C(=O)Nc2ccc([N+](=O)[O-])cc2)cc1 (stereo not given) | – | 11.2 µM [falling, partial curve] | –
41 | O=C(O)c1[nH]c2ccccc2c1NS(=O)(=O)c1ccc(F)cc1 | – | 0.731 µM [falling, partial curve] | –
42 | O=C(NC1CCN(S(=O)(=O)c2ccccc2)CC1)c1cccc(F)c1 | -5.25 | 8.2 µM [falling, partial curve] | –

Row | Structure (SMILES) | cell number change [%] | AC50 [1] | AC50 [2]
43 | Cc1c(-c2ccccc2)c(P(=O)(N2CCOCC2)N2CCOCC2)c2ccccn12 | 31.8 | 8.2 µM [rising, partial curve] | 20.6 µM [rising, single point]
44 | CCOc1cc(/C=N/NC(=O)C(=O)NCCCOC(C)C)cc(Br)c1O | -52.4 | 0.651 µM [rising, partial curve] | 29.1 µM [falling, single point]
45 | Cc1ccc2nc(SCC(=O)c3c(N)n(C)c(=O)n(C)c3=O)[nH]c2c1 | -5.74 | – | 0.164 µM [rising, full curve, poor fit]
46 | Cc1c(Br)c([N+](=O)[O-])nn1C(C)C(=O)N1CCCc2ccccc21 (stereo not given) | -22.9 | – | 2.31 µM [rising, single point]
47 | COc1ccc(NC(=O)C(c2ccc(Cl)cc2)C(C)C)cn1 (stereo not given) | -33.7 | – | –
48 | Fc1ccc(-n2cc(-c3ccccc3)[n+]3c2SCC3)cc1 | 135 | – | –
49 | Cc1ccc(F)c(NC(=O)CCOc2ccccc2C)c1 | 0.549 | 0.58 µM [falling, single point] | –
50 | O=C1CC(NS(=O)(=O)c2ccc3ccccc3c2)CN1c1ccccc1 (stereo not given) | 44.8 | – | –
51 | Cc1ccc(C)c(SCC(=O)c2ccc[nH]2)c1 | – | – | 0.00517 µM [falling, full curve, poor fit]
52 | O=C(c1ccc(Cn2cc([N+](=O)[O-])cn2)o1)N1N=C(C(F)F)CC1(O)C(F)F (stereo not given) | – | 2.91 µM [rising, single point] | 3.26 µM [rising, single point]
53 | CC(=Nc1ccccc1)C1=C(O)COC1=O | -7.26 | 29.1 µM [rising, single point] | 5.8 µM [falling, single point]
54 | O=C(O)CCC(=O)N(Cc1ccccc1)Cc1ccccc1 | -12.4 | – | –
55 | CCCCCCCCCCS(=O)(=O)N/N=C/c1ccc(O)cc1 | -19.7 | 29.1 µM [falling, single point] | –
56 | Cc1ccc(N2C(=O)C3ON(c4ccccc4)C(c4ccncc4)C3C2=O)c(C)c1 (stereo not given) | 1.71 | – | –
57 | CCCCc1cc(=O)oc2cc(C)cc(OC(C)C(=O)NCc3ccncc3)c12 (stereo not given) | -6.6 | – | –
58 | N#C/C(=C\c1ccncc1)c1ccc(NC(N)=O)cc1 | 16.3 | – | 1.03 µM [rising, full curve, poor fit]
59 | Cc1ccc2nc(Cl)c(/C=N/n3c(C)nnc3C)cc2c1 | -12.2 | 6.51 µM [falling, single point] | –
60 | C=CCNC(=O)C1CC(=O)N(c2ccc(OCc3ccccc3Cl)cc2)C1 (stereo not given) | 3.44 | 0.092 µM [rising, full curve, poor fit] | –
61 | Cc1ccc(N(CC(=O)NC2CC3CCC2C3)S(C)(=O)=O)cc1C (stereo not given) | 1.65 | 0.058 µM [falling, full curve, poor fit] | –

Laid out differently: results already given

| Row | Structure (SMILES) | cell number change [%] | AC50 [1] | AC50 [2] |
| --- | --- | --- | --- | --- |
| 50 | O=C1CC(NS(=O)(=O)c2ccc3ccccc3c2)CN1c1ccccc1 (stereo not given) | 44.8 | – | – |
| 51 | Cc1ccc(C)c(SCC(=O)c2ccc[nH]2)c1 | – | – | 0.00517 µM [falling, full curve, poor fit] |
| 52 | O=C(c1ccc(Cn2cc([N+](=O)[O-])cn2)o1)N1N=C(C(F)F)CC1(O)C(F)F (stereo not given) | – | 2.91 µM [rising, single point] | 3.26 µM [rising, single point] |
